Record: PubChem BioAssay AID1671195 (Yale University, 2021)
Aim: 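Knockdowns that increase or decrease uptake of fluorescent LDL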 (primary screen). Cells: human Huh7 hepatoma cells. Reagent: siRNA pool against human genes, 18 nM. Timing: about 2 to 2.5 days of knockdown, then 8 h LDL uptake. Conditions: DiI-labelled LDL at 30 µg/ml for 8 h, in lipoprotein-deficient serum medium. Detection: 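Fluorescent LDL signal imaged in cells, scaled to the plate median, robust z-score for each replicate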. Scale: robust z-score: higher = more LDL uptake after knockdown. Rule for the call: 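a gene counts as active if at least two replicate z-scores exceed ±2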.
In all, the deposit lists about 22,000 reagents; this is a part drawn at random. Over the whole deposit, about 1,510 (6.9%) are marked active. 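Active includes knockdowns raising or lowering LDL uptake; positive z-scores mean more uptake, negative mean less.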 Entries without a mark were called inactive.

TMEM132C (transmembrane protein 132C) | robust z-score, replicate 1: 2.45 (active); robust z-score, replicate 2: 0.438; robust z-score, replicate 3: 1.79
RPLP2P1 (ribosomal protein lateral stalk subunit P2 pseudogene 1) | robust z-score, replicate 1: 0.976; robust z-score, replicate 2: 0.315; robust z-score, replicate 3: 0.835
KIAA0825 | robust z-score, replicate 1: -0.149; robust z-score, replicate 2: -0.808; robust z-score, replicate 3: -0.145
PSMG3 (proteasome assembly chaperone 3) | robust z-score, replicate 1: 0.0314; robust z-score, replicate 2: -0.108; robust z-score, replicate 3: -0.519
MARCKS (myristoylated alanine rich protein kinase C substrate) | robust z-score, replicate 1: -0.229; robust z-score, replicate 2: -0.697; robust z-score, replicate 3: 0.242
IQUB (IQ motif and ubiquitin domain containing) | robust z-score, replicate 1: 0.312; robust z-score, replicate 2: 0.374; robust z-score, replicate 3: -0.217
SCARF2 (scavenger receptor class F member 2) | robust z-score, replicate 1: -0.925; robust z-score, replicate 2: -0.853; robust z-score, replicate 3: -0.683
LOC440591 (retired record) | robust z-score, replicate 1: 0.067; robust z-score, replicate 2: -0.106; robust z-score, replicate 3: -0.285
NDUFA10 (NADH:ubiquinone oxidoreductase subunit A10) | robust z-score, replicate 1: 0.462; robust z-score, replicate 2: -0.428; robust z-score, replicate 3: 0.117
NHSL1-AS1 (NHSL1 antisense RNA 1) | robust z-score, replicate 1: -0.78; robust z-score, replicate 2: -0.964; robust z-score, replicate 3: -1.02
LINC00588 (long independently transcribed non-coding RNA 588) | robust z-score, replicate 1: 1.62; robust z-score, replicate 2: 1.73; robust z-score, replicate 3: 0.24
RNF148 (ring finger protein 148) | robust z-score, replicate 1: 0.96; robust z-score, replicate 2: 0.515; robust z-score, replicate 3: 0.242
SWI5 (SWI5 homologous recombination repair protein) | robust z-score, replicate 1: 2.24 (active); robust z-score, replicate 2: 2.4; robust z-score, replicate 3: 2.65
LRIF1 (ligand dependent nuclear receptor interacting factor 1) | robust z-score, replicate 1: -0.758; robust z-score, replicate 2: -1.2; robust z-score, replicate 3: -1.07
CLRN1 (clarin 1) | robust z-score, replicate 1: -0.479; robust z-score, replicate 2: 1.08; robust z-score, replicate 3: -0.728
MRPL23 (mitochondrial ribosomal protein L23) | robust z-score, replicate 1: 2.45 (active); robust z-score, replicate 2: 1.58; robust z-score, replicate 3: 2.69
ANKZF1 (ankyrin repeat and zinc finger peptidyl tRNA hydrolase 1) | robust z-score, replicate 1: -1.62; robust z-score, replicate 2: -0.547; robust z-score, replicate 3: -1.52
ROS1 (ROS proto-oncogene 1, receptor tyrosine kinase) | robust z-score, replicate 1: 0.355; robust z-score, replicate 2: -0.774; robust z-score, replicate 3: -1.07
VEPH1 (ventricular zone expressed PH domain containing 1) | robust z-score, replicate 1: 0.179; robust z-score, replicate 2: -0.535; robust z-score, replicate 3: 0.0708
POU3F4 (POU class 3 homeobox 4) | robust z-score, replicate 1: -0.586; robust z-score, replicate 2: -0.488; robust z-score, replicate 3: -0.459
SH2D3A (SH2 domain containing 3A) | robust z-score, replicate 1: -0.52; robust z-score, replicate 2: 0.626; robust z-score, replicate 3: -0.269
ABCG2 (ATP binding cassette subfamily G member 2 (JR blood group)) | robust z-score, replicate 1: 0.514; robust z-score, replicate 2: 0.644; robust z-score, replicate 3: -0.105
DECR1 (2,4-dienoyl-CoA reductase 1) | robust z-score, replicate 1: -1.54; robust z-score, replicate 2: -1.21; robust z-score, replicate 3: -1.77
LOC441162 (retired record) | robust z-score, replicate 1: -0.14; robust z-score, replicate 2: -0.648; robust z-score, replicate 3: -0.755

Not a retest: an excerpt of the list.
IQUB (IQ motif and ubiquitin domain containing) | robust z-score, replicate 1: 0.312; robust z-score, replicate 2: 0.374; robust z-score, replicate 3: -0.217
SCARF2 (scavenger receptor class F member 2) | robust z-score, replicate 1: -0.925; robust z-score, replicate 2: -0.853; robust z-score, replicate 3: -0.683
